The results in this text go back to patent US20200399382A1 (ARGENX, published 2020).

The target in this experiment is T1, IL-5Rα (immobilised in the SPR competition assay) (Mus musculus (Mouse)) (UniProt P21183).
T1 sequence: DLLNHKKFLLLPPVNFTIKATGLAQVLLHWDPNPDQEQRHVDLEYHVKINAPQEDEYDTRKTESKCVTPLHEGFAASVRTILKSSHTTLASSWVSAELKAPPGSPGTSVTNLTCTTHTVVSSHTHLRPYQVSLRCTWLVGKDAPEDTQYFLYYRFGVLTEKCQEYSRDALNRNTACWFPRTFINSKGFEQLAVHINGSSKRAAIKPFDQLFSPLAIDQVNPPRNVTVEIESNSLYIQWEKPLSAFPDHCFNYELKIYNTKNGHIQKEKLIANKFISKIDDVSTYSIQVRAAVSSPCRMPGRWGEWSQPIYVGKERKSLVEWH
In words: SPR, IL-5Rα coated, IL-5 injected [c].

No constants are given. Whether binding was seen depends on the method and setting. Some results given as binding are weak or reduced against the parent protein; the word gives no strength.

B1: mouse IL-5 (ligand, UniProt P04401 21-133, looked up)
chain: MEIPMSTVVKETLTQLSAHRALLTSNETMRLPVPTHKNHQLCIGEIFQGLDILKNQTVRGGTVEMLFQNLSLIKKYIDRQKEKCGEERRRTRQFLDYLQEFLGVMSTEWAMEG
Regarding B1, the binding entry is given as “binds”.
